Measured values published in article PMC5014156.

The chains behind the UniProt entries cited, without tags or fusion partners.
UniProt Q93Z00: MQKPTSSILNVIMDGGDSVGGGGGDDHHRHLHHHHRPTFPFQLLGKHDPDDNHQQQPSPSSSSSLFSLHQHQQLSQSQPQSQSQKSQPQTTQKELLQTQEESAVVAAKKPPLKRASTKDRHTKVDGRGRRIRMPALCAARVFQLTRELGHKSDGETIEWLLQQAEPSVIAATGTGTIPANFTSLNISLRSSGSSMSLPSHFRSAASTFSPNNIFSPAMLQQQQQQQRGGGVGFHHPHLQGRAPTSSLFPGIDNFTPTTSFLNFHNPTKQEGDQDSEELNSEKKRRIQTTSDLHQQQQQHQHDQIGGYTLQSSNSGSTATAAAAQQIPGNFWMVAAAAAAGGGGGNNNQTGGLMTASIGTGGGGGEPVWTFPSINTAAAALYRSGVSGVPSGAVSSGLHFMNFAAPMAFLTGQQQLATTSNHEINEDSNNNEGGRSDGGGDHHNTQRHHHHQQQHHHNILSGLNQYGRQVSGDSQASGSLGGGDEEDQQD

B1: Arabidopsis TCP3 (protein, UniProt Q9MAH8 1-391)
chain: MAPDNDHFLDSPSPPLLEMRHHQSATENGGGCGEIVEVQGGHIVRSTGRKDRHSKVCTAKGPRDRRVRLSAPTAIQFYDVQDRLGFDRPSKAVDWLITKAKSAIDDLAQLPPWNPADTLRQHAAAAANAKPRKTKTLISPPPPQPEETEHHRIGEEEDNESSFLPASMDSDSIADTIKSFFPVASTQQSYHHQPPSRGNTQNQDLLRLSLQSFQNGPPFPNQTEPALFSGQSNNQLAFDSSTASWEQSHQSPEFGKIQRLVSWNNVGAAESAGSTGGFVFASPSSLHPVYSQSQLLSQRGPLQSINTPMIRAWFDPHHHHHHHQQSMTTDDLHHHHPYHIPPGIHQSAIPGIAFASSGEFSGFRIPARFQGEQEEHGGDNKPSSASSDSRH
B2: Arabidopsis TCP4 (protein, UniProt Q8LPR5 1-420)
chain: MSDDQFHHPPPPSSMRHRSTSDAADGGCGEIVEVQGGHIVRSTGRKDRHSKVCTAKGPRDRRVRLSAHTAIQFYDVQDRLGFDRPSKAVDWLIKKAKTSIDELAELPPWNPADAIRLAAANAKPRRTTAKTQISPSPPPPQQQQQQQQLQFGVGFNGGGAEHPSNNESSFLPPSMDSDSIADTIKSFFPVIGSSTEAPSNHNLMHNYHHQHPPDLLSRTNSQNQDLRLSLQSFPDGPPSLLHHQHHHHTSASASEPTLFYGQSNPLGFDTSSWEQQSSEFGRIQRLVAWNSGGGGGATDTGNGGGFLFAPPTPSTTSFQPVLGQSQQLYSQRGPLQSSYSPMIRAWFDPHHHHQSISTDDLNHHHHLPPPVHQSAIPGIGFASGEFSSGFRIPARFQGQEEEQHDGLTHKPSSASSISRH
B3: Arabidopsis TCP10 (protein, UniProt O82277 1-361)
chain: MGLKGYSVGEGGGEIVEVQGGHIIRATGRKDRHSKVFTSKGPRDRRVRLSAHTAIQFYDVQDRLGYDRPSKAVDWLIKKAKTAIDKLELGETTTTTTRQEPVNTKPESPTLVFQRENNDQTQFVAANLDPEDAMKTFFPATTTTNGGGGTNINFQNYPHQDDNNMVSRTTTPPPNLSQDLGLSLHPFQGNNNTVVVPETNNFTTTHFDTFGRISGWNHHDLTMTSSSSSEHQQQEQEERSNGGFMVNHHPHHHHHQPSMMTLLNSQQQQVFLGGQQQQQQRGTLQSSLFPHSFRSWDHHQTTSDHHHHQNQASSMFASSSQYGSHGMMMMQGLSFPNTTRLLHGEEATQPNSSSSPPNSHL

These molecules were tested against PePCF10 (bait in pDEST_GBKT7) (Phalaenopsis equestris) (assay: two-hybrid; yeast two-hybrid; PePCF10 bait in pDEST_GBKT7, Arabidopsis TCP preys in pDEST_GAD424, Y2H Gold yeast strain; growth on test medium lacking histidine, leucine and tryptophan).

| Molecule | binding |
| --- | --- |
| Arabidopsis TCP14 (from UniProt Q93Z00 1-489) | binds |
| B1 | binds |
| B2 | binds |
| B3 | binds |

No constants are given. Whether binding was seen depends on the method and setting. A result given as binding can be weak or reduced; the word gives no strength.
